According to the supplement of paper PMC12067093, “Discovery and optimisation of a covalent ligand for TRIM25 and its application to targeted protein ubiquitination” (Chemical Science, 2025):
Some of the results follow.

Chains of the proteins cited; added tags and fusions are not shown. Lines headed by an entry give the natural chain unless they say otherwise; changes in a name come on top.
UniProt Q86V21: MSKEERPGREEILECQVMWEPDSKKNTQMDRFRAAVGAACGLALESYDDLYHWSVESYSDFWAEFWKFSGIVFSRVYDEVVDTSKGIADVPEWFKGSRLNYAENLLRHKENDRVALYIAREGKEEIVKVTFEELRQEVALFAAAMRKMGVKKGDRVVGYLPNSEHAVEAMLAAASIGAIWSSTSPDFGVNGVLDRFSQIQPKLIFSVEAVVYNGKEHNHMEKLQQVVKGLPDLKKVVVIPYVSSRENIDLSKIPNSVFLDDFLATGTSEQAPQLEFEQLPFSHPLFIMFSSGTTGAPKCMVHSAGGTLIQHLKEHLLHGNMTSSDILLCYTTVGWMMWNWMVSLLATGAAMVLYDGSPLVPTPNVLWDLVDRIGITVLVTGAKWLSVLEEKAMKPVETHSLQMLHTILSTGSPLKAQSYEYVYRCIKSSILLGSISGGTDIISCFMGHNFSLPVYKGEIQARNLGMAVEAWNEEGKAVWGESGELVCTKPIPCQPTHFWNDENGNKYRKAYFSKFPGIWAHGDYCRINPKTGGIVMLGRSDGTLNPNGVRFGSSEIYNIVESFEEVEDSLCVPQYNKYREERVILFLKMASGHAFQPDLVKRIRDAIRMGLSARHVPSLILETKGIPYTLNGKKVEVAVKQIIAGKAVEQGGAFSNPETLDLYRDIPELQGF
UniProt Q15057: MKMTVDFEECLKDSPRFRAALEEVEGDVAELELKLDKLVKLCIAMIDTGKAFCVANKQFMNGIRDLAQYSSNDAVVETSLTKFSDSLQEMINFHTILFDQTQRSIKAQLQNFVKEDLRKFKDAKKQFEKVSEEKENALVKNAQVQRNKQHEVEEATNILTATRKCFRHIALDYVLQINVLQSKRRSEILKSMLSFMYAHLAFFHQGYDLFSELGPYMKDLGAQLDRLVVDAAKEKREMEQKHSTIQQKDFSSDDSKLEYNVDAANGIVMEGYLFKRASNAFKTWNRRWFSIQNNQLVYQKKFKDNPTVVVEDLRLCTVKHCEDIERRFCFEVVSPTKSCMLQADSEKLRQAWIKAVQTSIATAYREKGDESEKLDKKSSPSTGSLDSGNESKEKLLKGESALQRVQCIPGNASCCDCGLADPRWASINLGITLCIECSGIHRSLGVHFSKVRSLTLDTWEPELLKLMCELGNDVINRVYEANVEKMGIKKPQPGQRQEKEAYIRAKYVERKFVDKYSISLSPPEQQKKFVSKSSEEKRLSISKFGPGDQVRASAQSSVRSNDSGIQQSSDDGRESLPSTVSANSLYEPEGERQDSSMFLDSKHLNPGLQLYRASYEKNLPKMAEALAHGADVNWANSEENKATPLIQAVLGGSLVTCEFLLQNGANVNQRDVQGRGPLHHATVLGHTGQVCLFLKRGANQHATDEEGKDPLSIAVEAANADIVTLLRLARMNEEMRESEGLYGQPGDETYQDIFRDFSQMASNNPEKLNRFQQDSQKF
UniProt P21399: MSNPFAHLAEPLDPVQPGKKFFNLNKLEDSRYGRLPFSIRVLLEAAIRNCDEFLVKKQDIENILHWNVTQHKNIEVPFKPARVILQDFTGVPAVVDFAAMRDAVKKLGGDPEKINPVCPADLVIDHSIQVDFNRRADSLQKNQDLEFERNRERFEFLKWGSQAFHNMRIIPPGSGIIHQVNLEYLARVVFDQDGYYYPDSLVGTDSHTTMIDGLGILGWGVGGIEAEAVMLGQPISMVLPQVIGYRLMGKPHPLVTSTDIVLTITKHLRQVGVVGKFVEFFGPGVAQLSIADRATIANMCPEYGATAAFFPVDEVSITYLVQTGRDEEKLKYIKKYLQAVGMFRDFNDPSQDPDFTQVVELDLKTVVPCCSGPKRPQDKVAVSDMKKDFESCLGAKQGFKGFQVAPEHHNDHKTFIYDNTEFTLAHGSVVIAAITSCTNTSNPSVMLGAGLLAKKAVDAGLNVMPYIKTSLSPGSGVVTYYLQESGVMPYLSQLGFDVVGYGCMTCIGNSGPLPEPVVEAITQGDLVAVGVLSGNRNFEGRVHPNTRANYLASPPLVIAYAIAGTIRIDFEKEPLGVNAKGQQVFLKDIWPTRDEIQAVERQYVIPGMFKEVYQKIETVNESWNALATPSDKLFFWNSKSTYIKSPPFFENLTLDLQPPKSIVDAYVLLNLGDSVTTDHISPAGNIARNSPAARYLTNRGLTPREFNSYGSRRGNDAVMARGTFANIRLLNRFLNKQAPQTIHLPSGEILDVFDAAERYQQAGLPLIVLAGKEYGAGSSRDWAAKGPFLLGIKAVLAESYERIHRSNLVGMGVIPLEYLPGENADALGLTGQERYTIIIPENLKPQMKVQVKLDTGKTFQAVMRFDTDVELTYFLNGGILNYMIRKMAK
UniProt P53396: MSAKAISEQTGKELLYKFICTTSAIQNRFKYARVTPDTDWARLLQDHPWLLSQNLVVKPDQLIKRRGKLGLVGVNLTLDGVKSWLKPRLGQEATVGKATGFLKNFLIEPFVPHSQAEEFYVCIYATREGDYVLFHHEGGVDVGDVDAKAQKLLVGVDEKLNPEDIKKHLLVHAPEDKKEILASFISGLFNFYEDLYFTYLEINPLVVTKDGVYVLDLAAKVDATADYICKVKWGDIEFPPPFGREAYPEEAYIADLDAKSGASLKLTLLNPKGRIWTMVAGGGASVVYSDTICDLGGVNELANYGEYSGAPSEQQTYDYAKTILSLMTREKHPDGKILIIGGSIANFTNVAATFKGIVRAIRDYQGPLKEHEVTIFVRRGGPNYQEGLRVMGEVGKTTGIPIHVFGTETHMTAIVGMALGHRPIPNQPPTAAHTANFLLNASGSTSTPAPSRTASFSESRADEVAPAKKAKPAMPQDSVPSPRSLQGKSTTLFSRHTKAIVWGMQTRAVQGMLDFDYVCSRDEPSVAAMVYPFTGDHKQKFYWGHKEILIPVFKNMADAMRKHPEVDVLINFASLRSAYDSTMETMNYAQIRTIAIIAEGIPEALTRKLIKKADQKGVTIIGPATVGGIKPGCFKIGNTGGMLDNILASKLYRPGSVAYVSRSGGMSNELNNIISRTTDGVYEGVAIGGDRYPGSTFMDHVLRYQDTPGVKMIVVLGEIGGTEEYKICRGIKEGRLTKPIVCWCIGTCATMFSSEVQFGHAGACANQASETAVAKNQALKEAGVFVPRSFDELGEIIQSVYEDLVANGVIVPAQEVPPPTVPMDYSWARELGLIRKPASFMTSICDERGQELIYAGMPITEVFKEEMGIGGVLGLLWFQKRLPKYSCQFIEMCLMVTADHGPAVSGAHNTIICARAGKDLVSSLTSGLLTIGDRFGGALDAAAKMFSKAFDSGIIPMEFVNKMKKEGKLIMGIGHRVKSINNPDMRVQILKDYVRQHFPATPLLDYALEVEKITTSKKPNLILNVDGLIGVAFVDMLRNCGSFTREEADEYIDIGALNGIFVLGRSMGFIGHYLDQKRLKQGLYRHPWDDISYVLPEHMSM
UniProt Q9NUJ1: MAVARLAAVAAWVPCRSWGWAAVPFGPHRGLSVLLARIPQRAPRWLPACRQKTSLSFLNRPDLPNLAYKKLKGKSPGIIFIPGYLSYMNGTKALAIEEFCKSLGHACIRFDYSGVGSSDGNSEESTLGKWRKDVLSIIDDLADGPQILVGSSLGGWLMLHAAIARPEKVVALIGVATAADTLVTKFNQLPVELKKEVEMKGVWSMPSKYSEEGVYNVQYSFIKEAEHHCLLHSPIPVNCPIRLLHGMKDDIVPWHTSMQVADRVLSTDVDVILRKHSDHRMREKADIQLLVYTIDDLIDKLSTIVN
UniProt Q9P1F3: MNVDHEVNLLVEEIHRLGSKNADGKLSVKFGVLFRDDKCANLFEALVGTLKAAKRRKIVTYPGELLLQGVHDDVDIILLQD
UniProt Q9UG63: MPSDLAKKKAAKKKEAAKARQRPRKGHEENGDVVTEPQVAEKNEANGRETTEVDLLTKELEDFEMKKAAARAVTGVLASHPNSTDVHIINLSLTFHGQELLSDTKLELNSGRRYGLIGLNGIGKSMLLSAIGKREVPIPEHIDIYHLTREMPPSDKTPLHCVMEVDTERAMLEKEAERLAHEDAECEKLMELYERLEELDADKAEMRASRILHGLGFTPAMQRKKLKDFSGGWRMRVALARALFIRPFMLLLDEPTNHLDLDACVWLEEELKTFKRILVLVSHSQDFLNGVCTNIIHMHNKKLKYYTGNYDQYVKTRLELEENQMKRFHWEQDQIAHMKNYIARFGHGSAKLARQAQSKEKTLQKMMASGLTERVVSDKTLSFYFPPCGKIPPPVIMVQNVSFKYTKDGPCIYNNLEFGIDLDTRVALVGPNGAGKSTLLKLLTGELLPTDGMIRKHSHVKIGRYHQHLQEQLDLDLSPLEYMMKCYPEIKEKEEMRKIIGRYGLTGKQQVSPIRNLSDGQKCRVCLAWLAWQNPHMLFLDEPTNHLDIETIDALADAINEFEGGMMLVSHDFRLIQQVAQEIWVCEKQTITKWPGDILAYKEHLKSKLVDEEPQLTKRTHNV
UniProt P11310: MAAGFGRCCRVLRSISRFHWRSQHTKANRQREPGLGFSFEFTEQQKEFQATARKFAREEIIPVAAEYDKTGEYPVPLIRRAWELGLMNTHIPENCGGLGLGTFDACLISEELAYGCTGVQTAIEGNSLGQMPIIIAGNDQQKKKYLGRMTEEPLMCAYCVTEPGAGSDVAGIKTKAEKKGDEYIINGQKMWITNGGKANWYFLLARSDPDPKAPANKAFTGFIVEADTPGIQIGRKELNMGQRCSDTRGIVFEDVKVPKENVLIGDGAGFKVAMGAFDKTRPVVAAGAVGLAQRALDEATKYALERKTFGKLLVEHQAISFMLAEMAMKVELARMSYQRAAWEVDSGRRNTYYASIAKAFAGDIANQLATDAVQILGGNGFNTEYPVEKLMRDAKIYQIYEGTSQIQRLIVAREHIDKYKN
UniProt Q2M2I8: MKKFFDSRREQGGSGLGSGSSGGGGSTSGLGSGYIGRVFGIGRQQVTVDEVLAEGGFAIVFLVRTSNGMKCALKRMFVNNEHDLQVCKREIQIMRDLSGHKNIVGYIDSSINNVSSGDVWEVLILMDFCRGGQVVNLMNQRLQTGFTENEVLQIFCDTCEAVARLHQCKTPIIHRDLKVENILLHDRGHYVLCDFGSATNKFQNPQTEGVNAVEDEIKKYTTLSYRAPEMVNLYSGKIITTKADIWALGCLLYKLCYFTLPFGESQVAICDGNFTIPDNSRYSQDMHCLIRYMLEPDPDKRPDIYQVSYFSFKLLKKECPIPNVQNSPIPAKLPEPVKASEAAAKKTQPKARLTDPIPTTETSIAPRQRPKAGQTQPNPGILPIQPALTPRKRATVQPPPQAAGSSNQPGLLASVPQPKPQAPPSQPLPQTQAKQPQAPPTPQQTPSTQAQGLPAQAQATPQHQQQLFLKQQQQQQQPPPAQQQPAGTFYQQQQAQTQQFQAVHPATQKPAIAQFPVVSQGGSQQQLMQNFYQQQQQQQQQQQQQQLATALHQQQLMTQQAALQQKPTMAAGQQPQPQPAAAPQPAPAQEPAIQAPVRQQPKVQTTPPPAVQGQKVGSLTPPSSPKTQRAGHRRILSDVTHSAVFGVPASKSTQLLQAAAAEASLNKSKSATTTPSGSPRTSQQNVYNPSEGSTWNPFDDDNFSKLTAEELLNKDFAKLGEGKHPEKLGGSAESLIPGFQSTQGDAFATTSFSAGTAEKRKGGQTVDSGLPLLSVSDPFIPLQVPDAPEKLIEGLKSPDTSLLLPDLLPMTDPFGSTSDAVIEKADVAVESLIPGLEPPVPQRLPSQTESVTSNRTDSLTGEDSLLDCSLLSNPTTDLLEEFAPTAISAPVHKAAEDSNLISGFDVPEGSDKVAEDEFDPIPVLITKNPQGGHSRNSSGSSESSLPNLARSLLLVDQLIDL
UniProt Q96GS6: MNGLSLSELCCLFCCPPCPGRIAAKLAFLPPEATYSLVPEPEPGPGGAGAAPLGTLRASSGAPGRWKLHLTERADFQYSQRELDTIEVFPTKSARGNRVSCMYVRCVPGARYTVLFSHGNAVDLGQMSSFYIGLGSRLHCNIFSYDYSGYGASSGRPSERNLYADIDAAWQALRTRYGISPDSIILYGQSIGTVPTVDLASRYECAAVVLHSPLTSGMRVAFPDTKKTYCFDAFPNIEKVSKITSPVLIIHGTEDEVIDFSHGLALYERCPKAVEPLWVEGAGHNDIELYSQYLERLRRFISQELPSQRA
UniProt P24752: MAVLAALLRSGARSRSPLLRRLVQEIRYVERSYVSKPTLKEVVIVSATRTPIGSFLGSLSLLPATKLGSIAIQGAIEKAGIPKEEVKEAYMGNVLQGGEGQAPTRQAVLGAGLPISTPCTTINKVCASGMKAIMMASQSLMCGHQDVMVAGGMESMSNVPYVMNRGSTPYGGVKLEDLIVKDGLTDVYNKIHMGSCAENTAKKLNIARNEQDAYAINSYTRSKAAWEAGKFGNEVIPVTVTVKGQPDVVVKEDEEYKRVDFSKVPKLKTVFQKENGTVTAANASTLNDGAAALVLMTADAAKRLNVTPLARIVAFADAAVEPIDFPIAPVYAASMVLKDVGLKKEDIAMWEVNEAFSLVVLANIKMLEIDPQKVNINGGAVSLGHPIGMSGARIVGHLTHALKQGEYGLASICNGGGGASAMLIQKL

Compound: Cc1cc(ccc1-c1ccccc1)C(=O)N1CCCN(CC1)C(=O)CCl [compound 10]
Test: probe-labelled cysteine peptide fold change vs DMSO (competition) (log2 fold change); higher = less target engagement (more negative = stronger competition)
Conditions: THP-1, incubation time: 4 h
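Note: competitive profiling in live THP-1 cells: cysteine peptides tagged with an iodoacetamide desthiobiotin (IA-DTB) probe, intensity after compound treatment relative to DMSO-treated cells.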

## ACAD9_Q9H845_507_TVDLGLTGNHGVVHPSLADSANKFEENTYCFGR (UniProt Q9H845)
10 µM
  probe-labelled cysteine peptide fold change: -0.136
50 µM
  probe-labelled cysteine peptide fold change: -0.519

## AACS_Q86V21_15_EERPGREEILECQVMWEPDSKK (UniProt Q86V21)
10 µM
  probe-labelled cysteine peptide fold change: -0.237
50 µM
  probe-labelled cysteine peptide fold change: -0.344

## ACAP2_Q15057_10_MTVDFEECLK (UniProt Q15057)
10 µM
  probe-labelled cysteine peptide fold change: -0.0177
50 µM
  probe-labelled cysteine peptide fold change: 0.127

## AAAS_Q9NRG9_444_NSPVFELLPCGIIQGEPGAQPQLITFHPSFNK (UniProt Q9NRG9)
10 µM
  probe-labelled cysteine peptide fold change: 0.143
50 µM
  probe-labelled cysteine peptide fold change: 0.272

## AARS2_Q5JTZ9_750_VVSVGVPVAHALDPASQAALQTSVELCCGTHLLR (UniProt Q5JTZ9)
10 µM
  probe-labelled cysteine peptide fold change: 0.259
50 µM
  probe-labelled cysteine peptide fold change: -0.431

## ACO1_P21399_118_INPVCPADLVIDHSIQVDFNR (UniProt P21399)
10 µM
  probe-labelled cysteine peptide fold change: -0.113
50 µM
  probe-labelled cysteine peptide fold change: -0.0146

## ACBD6_Q9BR61_80_VGNCNTPKPSFFDFEGK (UniProt Q9BR61)
10 µM
  probe-labelled cysteine peptide fold change: 0.0959
50 µM
  probe-labelled cysteine peptide fold change: -0.579

## ACOT2_P49753_300_GGELCLSMASFLK (UniProt P49753)
10 µM
  probe-labelled cysteine peptide fold change: -0.0218
50 µM
  probe-labelled cysteine peptide fold change: 0.0138

## ACBD3_Q9H3P7_129_QVLMGPYNPDTCPEVGFFDVLGNDRR (UniProt Q9H3P7)
10 µM
  probe-labelled cysteine peptide fold change: 0.105
50 µM
  probe-labelled cysteine peptide fold change: -0.128

## ACIN1_Q9UKV3_1083_FLCADYAEQDELDYHR (UniProt Q9UKV3)
10 µM
  probe-labelled cysteine peptide fold change: 0.00781
50 µM
  probe-labelled cysteine peptide fold change: 0.134

## ACLY_P53396_845_KPASFMTSICDER (UniProt P53396)
10 µM
  probe-labelled cysteine peptide fold change: 0.0439
50 µM
  probe-labelled cysteine peptide fold change: 0.129

## ABHD11_Q8NFV4_135_NHGDSPHSPDMSYEIMSQDLQDLLPQLGLVPCVVVGHSMGGK (UniProt Q8NFV4)
10 µM
  probe-labelled cysteine peptide fold change: 0.196
50 µM
  probe-labelled cysteine peptide fold change: -0.135

## ABHD10_Q9NUJ1_239_EAEHHCLLHSPIPVNCPIR (UniProt Q9NUJ1)
10 µM
  probe-labelled cysteine peptide fold change: -0.0294
50 µM
  probe-labelled cysteine peptide fold change: 0.164

## AARS2_Q5JTZ9_300_HSTYDTDLFSPLLNAIQQGCR (UniProt Q5JTZ9)
10 µM
  probe-labelled cysteine peptide fold change: 0.101
50 µM
  probe-labelled cysteine peptide fold change: -0.0174

## ACAA2_P42765_128_EAEVVLCGGTESMSQAPYCVR (UniProt P42765)
10 µM
  probe-labelled cysteine peptide fold change: -0.368
50 µM
  probe-labelled cysteine peptide fold change: -0.323

## AAAS_Q9NRG9_331_CQTGCWSPDGSR (UniProt Q9NRG9)
10 µM
  probe-labelled cysteine peptide fold change: 0.0497
50 µM
  probe-labelled cysteine peptide fold change: 0.000481

## ABCF3_Q9NUQ8_102_ITENYDCGTK (UniProt Q9NUQ8)
10 µM
  probe-labelled cysteine peptide fold change: -0.14
50 µM
  probe-labelled cysteine peptide fold change: -0.285

## ABRACL_Q9P1F3_39_CANLFEALVGTLK (UniProt Q9P1F3)
10 µM
  probe-labelled cysteine peptide fold change: 0.0698
50 µM
  probe-labelled cysteine peptide fold change: -0.0903

## ABCF2_Q9UG63_388_TLSFYFPPCGK (UniProt Q9UG63)
10 µM
  probe-labelled cysteine peptide fold change: 0.0551
50 µM
  probe-labelled cysteine peptide fold change: 0.0851

## ABHD10_Q9NUJ1_107_SLGHACIR (UniProt Q9NUJ1)
10 µM
  probe-labelled cysteine peptide fold change: 0.189
50 µM
  probe-labelled cysteine peptide fold change: 0.189

## AAAS_Q9NRG9_321_VWEAQMWTCER (UniProt Q9NRG9)
10 µM
  probe-labelled cysteine peptide fold change: -0.206
50 µM
  probe-labelled cysteine peptide fold change: -0.073

## ACADM_P11310_159_MTEEPLMCAYCVTEPGAGSDVAGIK (UniProt P11310)
10 µM
  probe-labelled cysteine peptide fold change: -0.0645
50 µM
  probe-labelled cysteine peptide fold change: -0.598

## ACAD9_Q9H845_613_AYICAHPLDR (UniProt Q9H845)
10 µM
  probe-labelled cysteine peptide fold change: -0.0975
50 µM
  probe-labelled cysteine peptide fold change: 0.218

## ABCF2_Q9UG63_586_LIQQVAQEIWVCEK (UniProt Q9UG63)
10 µM
  probe-labelled cysteine peptide fold change: 0.35
50 µM
  probe-labelled cysteine peptide fold change: 0.325

## ACAD10_Q6JQN1_197_LCLEQLGLQPSESIFLDDLGTNLK (UniProt Q6JQN1)
10 µM
  probe-labelled cysteine peptide fold change: 0.0774
50 µM
  probe-labelled cysteine peptide fold change: 0.00134

## AAK1_Q2M2I8_288_YSQDMHCLIR (UniProt Q2M2I8)
10 µM
  probe-labelled cysteine peptide fold change: 0.0263
50 µM
  probe-labelled cysteine peptide fold change: -0.127

## ABHD17A_Q96GS6_205_YECAAVVLHSPLTSGMR (UniProt Q96GS6)
10 µM
  probe-labelled cysteine peptide fold change: 0.00182
50 µM
  probe-labelled cysteine peptide fold change: 0.0905

## AAMP_Q13685_130_LSDGELLFECAGHK (UniProt Q13685)
10 µM
  probe-labelled cysteine peptide fold change: 0.0672
50 µM
  probe-labelled cysteine peptide fold change: 0.0581

## ACACA_Q13085_1769_RVSALNSVHCEHVEDEGESR (UniProt Q13085)
10 µM
  probe-labelled cysteine peptide fold change: 0.251
50 µM
  probe-labelled cysteine peptide fold change: 0.453

## ACAT1_P24752_413_QGEYGLASICNGGGGASAMLIQKL (UniProt P24752)
10 µM
  probe-labelled cysteine peptide fold change: -0.296
50 µM
  probe-labelled cysteine peptide fold change: -0.842

## ACACA_Q13085_1230_MSFSSNLNHYGMTHVASVSDVLLDNSFTPPCQR (UniProt Q13085)
10 µM
  probe-labelled cysteine peptide fold change: 0.0438
50 µM
  probe-labelled cysteine peptide fold change: -0.0741

## ACLY_P53396_229_VDATADYICK (UniProt P53396)
10 µM
  probe-labelled cysteine peptide fold change: 0.116
50 µM
  probe-labelled cysteine peptide fold change: 0.0189
